PubChem BioAssay AID1224828 – NIAID, 2016
Here is one part, drawn at random, of about 17,000 deposited reagents. 762 of them (4.5%) were called active. 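Active calls include both raised and lowered p65 entry, mostly lowered; wells with fewer than 50 cells lack a z-score.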 Raw values vary from plate to plate and are shown uncorrected.

Test: 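Regulators linking TLR4 signalling to p65 nuclear translocation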 (primary screen)
Cell system: mouse RAW264.7 G9 macrophage reporter cells (GFP-p65, Tnf promoter-mCherry)
Knock-down reagent: siRNA pool against mouse genes, 100 nM
Timing: 2 days siRNA transfection, then 40 min LPS before fixation
Challenge: LPS (Salmonella minnesota R595) at 10 ng/ml
Read-out: 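Imaged p65 nuclear translocation ratio, normalised to the plate median, converted to robust z-scores and averaged across two replicates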
Reading the numbers: p65 translocation robust z-score: higher = more nuclear NF-kappaB p65 after LPS than the plate median; nuclear/cytoplasmic p65 ratio: higher = more nuclear NF-kappaB p65
Call rule: 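Called active when z exceeds 3.3 or falls under -1.56 (median of Tlr4 controls), giving activity score of at least 50; no calls for control wells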
Meaning of the calls: active = hit (p65 shift raised or lowered); inactive = no clear change

Target gene | p65 translocation robust z-score | nuclear/cytoplasmic p65 ratio, rep 1 | nuclear/cytoplasmic p65 ratio, rep 2 | low cell count flag | Outcome
5830416A07RIK | -0.99 | 1.32 | 1.33 | enough cells to score | inactive
Klk4 | -0.12 | 1.47 | 1.47 | enough cells to score | inactive
Apoa5 | 0.71 | 1.76 | 1.56 | enough cells to score | inactive
Tlx1 | -0.95 | 1.42 | 1.35 | enough cells to score | inactive
B4galt1 | 0.1 | 1.65 | 1.61 | enough cells to score | inactive
Gp1ba | -0.17 | 1.37 | 1.39 | enough cells to score | inactive
Rrm2b | -0.69 | 1.45 | 1.39 | enough cells to score | inactive
Il20ra | 0.26 | 1.57 | 1.37 | enough cells to score | inactive
Zcchc9 | – | 1.62 | 1.23 | fewer than 50 cells per well; well left out of scoring | inactive
Or4c109 | -2.11 | 1.42 | 1.19 | enough cells to score | active
Nat8f3 | -0.16 | 1.6 | 1.72 | enough cells to score | inactive
Fat1 | 0.9 | 1.64 | 1.47 | enough cells to score | inactive
Myl10 | 0.38 | 1.75 | 1.74 | enough cells to score | inactive
St6galnac2 | 1.35 | 1.59 | 1.41 | enough cells to score | inactive
Ankrd22 | 0.57 | 1.7 | 1.76 | enough cells to score | inactive
Zfp668 | -3.27 | 1.17 | 1.29 | enough cells to score | active
Aard | – | 1.4 | 1.58 | fewer than 50 cells per well; well left out of scoring | inactive
Brinp3 | 1.01 | 1.82 | 1.91 | enough cells to score | inactive
Tubgcp4 | -0.09 | 1.41 | 1.4 | enough cells to score | inactive
H3c8 | 0.97 | 1.67 | 1.58 | enough cells to score | inactive
Mri1 | 1.98 | 1.3 | 1.73 | enough cells to score | inactive
Anapc4 | -0.08 | 1.63 | 1.58 | enough cells to score | inactive
Chrd | 1.19 | 1.76 | 1.99 | enough cells to score | inactive
Tex12 | – | 1.05 | 1.09 | fewer than 50 cells per well; well left out of scoring | inactive
Phldb2 | 0.44 | 1.53 | 1.29 | enough cells to score | inactive
Ggps1 | -1.09 | 1.25 | 1.27 | enough cells to score | inactive
Atox1 | – | 0.987 | 1.87 | fewer than 50 cells per well; well left out of scoring | inactive
Fbln7 | -0.1 | 1.57 | 1.39 | enough cells to score | inactive
Acp5 | 0.79 | 1.79 | 1.69 | enough cells to score | inactive
Cfap206 | -0.56 | 1.33 | 1.33 | enough cells to score | inactive
Or4k49 | -1.22 | 1.42 | 1.08 | enough cells to score | inactive
Rbm42 | – | 1.54 | 1.5 | fewer than 50 cells per well; well left out of scoring | inactive
Apobec1 | 0.37 | 1.69 | 1.66 | enough cells to score | inactive
Gpr18 | -0.77 | 1.38 | 1.49 | enough cells to score | inactive
Mybph | -0.18 | 1.75 | 1.57 | enough cells to score | inactive
Acnat2 | 0.72 | 1.74 | 1.86 | enough cells to score | inactive
Crygb | 0.65 | 1.55 | 1.48 | enough cells to score | inactive
Rfx1 | -0.07 | 1.49 | 1.52 | enough cells to score | inactive
Slc7a13 | 0.14 | 1.44 | 1.25 | enough cells to score | inactive
Aurka | -0.63 | 1.79 | 1.3 | enough cells to score | inactive
Rrp36 | 0.59 | 1.58 | 2.04 | enough cells to score | inactive
Gm5082 | 1.74 | 1.64 | 1.73 | enough cells to score | inactive
Gcgr | 0.43 | 1.56 | 1.66 | enough cells to score | inactive
Tas2r124 | 2.37 | 1.74 | 1.39 | enough cells to score | inactive
Chn2 | -0.5 | 1.55 | 1.66 | enough cells to score | inactive
Tapbpl | – | 1.37 | 1.18 | fewer than 50 cells per well; well left out of scoring | inactive
Galr3 | -0.04 | 1.5 | 1.39 | enough cells to score | inactive
Mrpl23 | 0.06 | 1.88 | 1.53 | enough cells to score | inactive
Ptbp3 | 1.3 | 1.63 | 1.34 | enough cells to score | inactive
Gpbar1 | 1.33 | 1.65 | 1.82 | enough cells to score | inactive
Or8g19 | – | 1.63 | 1.46 | fewer than 50 cells per well; well left out of scoring | inactive
Tbcel | -0.02 | 1.47 | 1.35 | enough cells to score | inactive
Syt9 | – | 1.24 | 1 | fewer than 50 cells per well; well left out of scoring | inactive
Ddah1 | 0.01 | 1.55 | 1.57 | enough cells to score | inactive
Fbxo17 | -1.43 | 1.36 | 1.28 | enough cells to score | inactive
1500015L24Rik | – | 1.18 | 1.01 | fewer than 50 cells per well; well left out of scoring | inactive
Krt88 | -0.3 | 1.36 | 1.37 | enough cells to score | inactive
Dnajc4 | 1.86 | 1.78 | 1.54 | enough cells to score | inactive
Armc12 | – | 1.31 | 1.4 | fewer than 50 cells per well; well left out of scoring | inactive

Already shown: an excerpt of the list.
Target gene | p65 translocation robust z-score | nuclear/cytoplasmic p65 ratio, rep 1 | nuclear/cytoplasmic p65 ratio, rep 2 | low cell count flag | Outcome
Tlx1 | -0.95 | 1.42 | 1.35 | enough cells to score | inactive
B4galt1 | 0.1 | 1.65 | 1.61 | enough cells to score | inactive
Gp1ba | -0.17 | 1.37 | 1.39 | enough cells to score | inactive
Rrm2b | -0.69 | 1.45 | 1.39 | enough cells to score | inactive
Il20ra | 0.26 | 1.57 | 1.37 | enough cells to score | inactive
Zcchc9 | – | 1.62 | 1.23 | fewer than 50 cells per well; well left out of scoring | inactive
Or4c109 | -2.11 | 1.42 | 1.19 | enough cells to score | active
Nat8f3 | -0.16 | 1.6 | 1.72 | enough cells to score | inactive
